# Laboratory results as given in PubChem BioAssay AID2685 (National Center for Advancing Translational Sciences (NCATS), 2010).
# The other results are listed elsewhere or left out. The main result of the screen is listed elsewhere. These columns were measured beside it and carry no call. Compounds called inactive in the main read-out are mostly missing here. Words in brackets tell the shape of the fitted curve; partial curves, single points and poor fits give uncertain potencies.
# Assay: qHTS Assay for Lipid Storage Modulators in Drosophila S3 Cells;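 on cell number change: cells counted by Cell Tracker Red CMTPX staining in the red channel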
# Details: BODIPY lipid droplet fluorescence, 18-24 h; for cell number change: measured here: cell count max response, cells fed with added oleic acid
# How it was run: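 Drosophila S3 cells loaded with oleic acid (400 uM, as added) and compounds at several concentrations; lipid droplets imaged by 488-nm laser-scanning cytometry, 500–530 nm intensity and object ratio to cell channel. Percent activity normalized to 20 uM Triacsin C.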
# [1] = measured here: cell number channel AC50, cells fed with added oleic acid
# [2] = measured here: lipid fluorescence (Fed channel) AC50, cells fed with added oleic acid
SMILES,AC50 [1],AC50 [2],cell number change
Cc1ccc(C(O)P(=O)(OCCC(C)C)c2ccc(N(C)C)cc2)cc1 (centres undefined),"29.1 µM [falling, single point]",,
CC(C)=CCSc1nnc([C@@H](N)Cc2c[nH]c3ccccc23)o1,,"0.731 µM [rising, full curve]",
O=C(N/N=C/c1c(O)n(CCc2ccccc2)c(=O)[nH]c1=O)c1ccccc1O,,,2.31%
COP(=O)(OC)C1(O)C(=O)Nc2ccc(Br)cc21 (centres undefined),"6.51 µM [rising, single point]","2.59 µM [rising, full curve]",-7.87%
COc1cccc(NP(=O)(Oc2ccccc2Cl)Oc2ccccc2Cl)c1,"29.1 µM [falling, single point]","16.4 µM [falling, single point]",-49.8%
CC(=O)N1CCN(CCN=Cc2c(O)n(-c3ccc(C)cc3)c(=S)[nH]c2=O)CC1,,"11.6 µM [rising, partial curve, poor fit]",36.6%
COC(=O)C1=C(c2ccc(F)cc2F)C[C@@H]2CC[C@H]1N2C(=O)NCc1ccc(F)cc1,,"0.366 µM [falling, full curve, poor fit]",13.9%
COc1ccc(CCn2c(O)c(/C=N/NC(=O)c3ccncc3)c(=O)[nH]c2=O)cc1OC,,"3.26 µM [rising, single point]",8.11%
C[C@]12CCC(=O)C=C1CC[C@@H]1[C@@H]2CC[C@]2(C)C(=O)CC[C@@H]12,,"1.84 µM [rising, full curve, poor fit]",-2.31%
CC(=O)O[C@H]1C[C@@H]2CC[C@@H]3[C@H](CC[C@]4(C)C(=O)CC[C@@H]34)[C@@]2(C)C[C@@H]1OC(C)=O,,"20.6 µM [rising, single point]",27.7%
COC(=O)C1=C(c2ccccc2OCc2ccccc2)C[C@@H]2CC[C@H]1N2C(=O)NCc1ccc(OC)c(OC)c1,,"29.1 µM [falling, single point]",-3.97%
OC(c1ccccc1)(c1ccccc1)C1CCNCC1,,"0.651 µM [falling, single point]",
CN1CCN(C(=O)COc2ccc3ccccc3c2)CC1,,,-12.5%
COc1ccc(N2C(=O)/C(=C/c3cc(C)n(-c4ccc(C)cn4)c3C)C(=O)NC2=S)c(OC)c1,,"0.411 µM [falling, single point]",-26.7%
Cc1ccc2c(c1)C1CN(C)CCC1N2C(=O)/C=C/c1ccc2c(c1)OCO2 (centres undefined),"6.51 µM [rising, partial curve, poor fit]",,22.8%
O=C1CC2OCC=C3CN4CCC56c7cc([N+](=O)[O-])ccc7N1C5C2C3CC46 (centres undefined),"0.259 µM [falling, full curve, poor fit]",,-23.3%
Cc1ccccc1N1C(=O)/C(=C/c2ccco2)C(=O)NC1=S,,"29.1 µM [rising, partial curve]",-13.9%
CC(=O)c1ccc2c(c1)C1C(Cl)C(Sc3ccccc3[N+](=O)[O-])CC1C(c1ccccc1[N+](=O)[O-])N2 (centres undefined),,"29.1 µM [falling, single point]",-24.7%

# Three consecutive compounds already listed:
SMILES,AC50 [1],AC50 [2],cell number change
CN1CCN(C(=O)COc2ccc3ccccc3c2)CC1,,,-12.5%
COc1ccc(N2C(=O)/C(=C/c3cc(C)n(-c4ccc(C)cn4)c3C)C(=O)NC2=S)c(OC)c1,,"0.411 µM [falling, single point]",-26.7%
Cc1ccc2c(c1)C1CN(C)CCC1N2C(=O)/C=C/c1ccc2c(c1)OCO2 (centres undefined),"6.51 µM [rising, partial curve, poor fit]",,22.8%

# (further entries)

SMILES,AC50 [1],AC50 [2],cell number change
Cc1cc(C)c(C(=O)N2CCC3(CC2)OCCO3)c(C)c1,,"20.6 µM [rising, single point]",7.42%
COc1cccc(-n2c(/C=C/c3ccc(O)c(O)c3)nc3ccccc3c2=O)c1,"0.00517 µM [falling, full curve, poor fit]","0.00461 µM [falling, full curve, poor fit]",-30.3%
CC(C)NS(=O)(=O)c1ccc(OCC(=O)N2CCN(Cc3ccc4c(c3)OCO4)CC2)c(Cl)c1,"29.1 µM [falling, partial curve, poor fit]","29.1 µM [falling, single point]",-35.3%
COC(=O)C1=C(c2cccc(C#N)c2)C[C@@H]2CC[C@H]1N2C(=O)NC1CCCCC1,,"0.00461 µM [rising, full curve, poor fit]",7.55%
CCN(CC)CCCN=Cc1c(O)n(-c2ccccc2F)c(=O)[nH]c1=O,,,1.48%
Cn1c(=O)c2[nH]cnc2n(C)c1=O,"18.4 µM [rising, partial curve, poor fit]",,
O=C1CC(=O)N(c2cccc(F)c2)C(=O)N1,,"5.17 µM [falling, single point]",-6.32%
C=CC1CN2CCC1CC2c1[nH]c2ccccc2c1CCO (centres undefined),"0.58 µM [falling, single point]",,
CC#CP(=O)(OCC)C(O)(c1ccccc1)C(F)(F)F (centres undefined),,"2.91 µM [falling, partial curve]",
CC(N)Cc1ccccc1Sc1ccc(O)cc1 (centres undefined),,"0.0731 µM [falling, full curve, poor fit]",-8.74%
COc1ccc(N2C(=O)CC(N3CCC(n4c(=O)[nH]c5ccccc54)CC3)C2=O)cc1 (centres undefined),"0.651 µM [falling, single point]",,
O=c1oc2ccccc2c(O)c1C(c1ccccn1)c1c(O)c2ccccc2oc1=O,,,19.2%
O=C(O)CN1C(=O)CN=C(c2ccccn2)c2cc(Cl)ccc21,,"1.46 µM [falling, full curve]",12.9%
C=CCNC(=O)c1c(N)n(CCN2CCOCC2)c2nc3ccccc3nc12,,"6.51 µM [falling, full curve, poor fit]",-29.4%
O=C(N/N=C/c1c(O)n(C2CC2)c(=S)[nH]c1=O)c1ccccc1,"0.259 µM [rising, full curve]","0.731 µM [rising, full curve, poor fit]",44.6%
O=C1NC(=O)N(CCC2=CCCCC2)C(=O)/C1=C\c1cccs1,"32.6 µM [falling, partial curve, poor fit]","32.6 µM [falling, partial curve]",-35.7%
CCN(CC)c1ccc([N+](=O)[O-])c2cccnc12,"1.16 µM [falling, full curve]","1.3 µM [falling, full curve]",12%
CCCCOc1ccc(CCN)cc1Cl,"1.3 µM [falling, full curve]","1.16 µM [falling, single point]",18%
